Values from PubChem BioAssay AID652243 (Drosophila RNAi Screening Center, 2013).

Purpose: 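Fly regulators of androgen-dependent reporter output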 (primary screen)
Cell system: Drosophila S2R+ cells
Knock-down reagent: long dsRNA against Drosophila genes
Timing: 72 h (48 h, then 24 h hormone)
Challenge: synthetic androgen R1881 at 10 nM for 24 h
Read-out: 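Per-well raw luminescence of the androgen-driven firefly reporter and of the Renilla control, two replicates each, without normalisation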
Direction: firefly reporter light: higher = more light from androgen-responsive reporter; Renilla control light: higher = more constitutive control signal (cell number, transfection)
Hit rule: 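Across duplicate plates, a knock-down whose log firefly/Renilla ratio shifted a set fold down or up from the GFP/LacZ control mean was a hit; the downward cut appears as both 1.5 and 3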
Meaning of the calls: active = hit: reporter lowered or raised; inactive = no hit
In all, the deposit lists about 24,000 reagents; below is a random part of those with a known target gene and a result. In the full data, 246 (1%) got an active call. 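Plates not normalised; calls are printed but the firefly/Renilla ratio behind them is not deposited; fold cut for lowering reported inconsistently.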 Raw values vary from plate to plate and are shown uncorrected. Names joined by + are all predicted targets of the reagent. Not stated in the record: the amount of reagent.

RpL17 [DRSC18293] | firefly reporter light, replicate 1 = 47438; firefly reporter light, replicate 2 = 65967; Renilla control light, replicate 1 = 5.88e5; Renilla control light, replicate 2 = 4.34e5; Outcome = inactive
RpL17 [DRSC29971] | firefly reporter light, replicate 1 = 2.46e5; firefly reporter light, replicate 2 = 3.61e5; Renilla control light, replicate 1 = 9.16e5; Renilla control light, replicate 2 = 8.50e5; Outcome = inactive
CG43342 [DRSC13561] | firefly reporter light, replicate 1 = 2.07e5; firefly reporter light, replicate 2 = 1.50e5; Renilla control light, replicate 1 = 1.81e5; Renilla control light, replicate 2 = 2.76e5; Outcome = inactive
CG33178 [DRSC19950] | firefly reporter light, replicate 1 = 4.71e5; firefly reporter light, replicate 2 = 5.53e5; Renilla control light, replicate 1 = 3.09e6; Renilla control light, replicate 2 = 3.27e6; Outcome = inactive
CG33125 [DRSC00145] | firefly reporter light, replicate 1 = 1.88e5; firefly reporter light, replicate 2 = 1.35e5; Renilla control light, replicate 1 = 5.94e5; Renilla control light, replicate 2 = 3.70e5; Outcome = inactive
CG33125 [DRSC28619] | firefly reporter light, replicate 1 = 6.46e5; firefly reporter light, replicate 2 = 6.54e5; Renilla control light, replicate 1 = 1.56e6; Renilla control light, replicate 2 = 1.54e6; Outcome = inactive
bgm [DRSC03495] | firefly reporter light, replicate 1 = 1.05e6; firefly reporter light, replicate 2 = 1.19e6; Renilla control light, replicate 1 = 1.48e6; Renilla control light, replicate 2 = 1.58e6; Outcome = inactive
bgm [DRSC27103] | firefly reporter light, replicate 1 = 4.86e5; firefly reporter light, replicate 2 = 3.95e5; Renilla control light, replicate 1 = 9.26e5; Renilla control light, replicate 2 = 6.82e5; Outcome = inactive
noc [DRSC24997] | firefly reporter light, replicate 1 = 3.88e5; firefly reporter light, replicate 2 = 4.37e5; Renilla control light, replicate 1 = 4.54e5; Renilla control light, replicate 2 = 5.64e5; Outcome = inactive
CG42260 + asRNA:CR30267 [DRSC29385] | firefly reporter light, replicate 1 = 2.90e5; firefly reporter light, replicate 2 = 4.16e5; Renilla control light, replicate 1 = 7.76e5; Renilla control light, replicate 2 = 7.76e5; Outcome = inactive
CG2321 [DRSC15439] | firefly reporter light, replicate 1 = 1.36e5; firefly reporter light, replicate 2 = 97518; Renilla control light, replicate 1 = 8.18e5; Renilla control light, replicate 2 = 5.22e5; Outcome = inactive
mus304 [DRSC11372] | firefly reporter light, replicate 1 = 2.00e5; firefly reporter light, replicate 2 = 1.73e5; Renilla control light, replicate 1 = 1.65e6; Renilla control light, replicate 2 = 2.01e6; Outcome = inactive

Reprinted from the listing, 2 entries:
CG43342 [DRSC13561] | firefly reporter light, replicate 1 = 2.07e5; firefly reporter light, replicate 2 = 1.50e5; Renilla control light, replicate 1 = 1.81e5; Renilla control light, replicate 2 = 2.76e5; Outcome = inactive
CG33178 [DRSC19950] | firefly reporter light, replicate 1 = 4.71e5; firefly reporter light, replicate 2 = 5.53e5; Renilla control light, replicate 1 = 3.09e6; Renilla control light, replicate 2 = 3.27e6; Outcome = inactive
